The source of these data is the supplement of paper PMC4604168 (melanoma cell lines).

The other results are listed elsewhere or left out. Many values rest on one well or one pass, so single values are uncertain.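 The apoptosis fraction was the count of cleaved-PARP antibody-stained nuclei relative to all DNA-stained nuclei, imaged in 1,536-well plates. Screening doses were set so most cells survived, and baseline and induced cleaved-PARP levels vary greatly across cell lines.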

This assay relates to WM3526. The experiment in a line: cleaved PARP positive nuclei fraction relative to DMSO control; melanoma cells; higher = more apoptosis. The following applies: library dose: low library concentration; 72 h.
For `C=C(c1ccc(C(=O)O)cc1)c1cc2c(cc1C)C(C)(C)CCC2(C)C` [Bexarotene] + Cc1ccc(NC(=O)c2cccc(N(C)C)c2)cc1NC(=O)c1ccc(O)cc1 [ZM336372] (first compound 2 µM, partner dose 2 µM), the “cleaved PARP positive nuclei fraction” value turned out to be 61.4%. `Nc1nc(F)nc2c1ncn2[C@@H]1O[C@H](CO)[C@@H](O)[C@@H]1O` [fludarabine] + C=CCn1c(=O)c2cnc(Nc3ccc(N4CCN(C)CC4)cc3)nc2n1-c1cccc(C(C)(C)O)n1 [MK1775] (first compound 0.2 µM, partner dose 0.02 µM): the “cleaved PARP positive nuclei fraction” value worked out at 241%.

With `Cc1cc(Nc2cc(N3CCN(C)CC3)nc(/C=C/c3ccccc3)n2)n[nH]1` + Cn1cc(/C=C2\C(=O)Nc3cccnc32)c2ccccc21 [GW441756] (first compound 0.04 µM, partner dose 0.4 µM), the “cleaved PARP positive nuclei fraction” value turned out to be 68.6%. As to `CC(C)C[C@H](NC(=O)[C@H](Cc1ccccc1)NC(=O)c1cnccn1)B(O)O` [Bortezomib] + c1cc(-c2cnn3cc(-c4ccc(OCCN5CCCCC5)cc4)cnc23)ccn1 [Dorsomorphin] (first compound 0.001 µM, partner dose 0.4 µM), the “cleaved PARP positive nuclei fraction” value is 77.4%. For `Nc1ncn([C@H]2C[C@H](O)[C@@H](CO)O2)c(=O)n1` [decitabine] + Cc1cc([N+](=O)[O-])ccc1NS(=O)(=O)c1cc(Cl)ccc1Cl [FH535] (first compound 0.1 µM, partner dose 1 µM), the “cleaved PARP positive nuclei fraction” value worked out at 129%. The figure for `Nc1ncn([C@H]2C[C@H](O)[C@@H](CO)O2)c(=O)n1` [decitabine] + O=C(Nc1cccc(Cl)c1)Nc1ncc(CCNc2ncnc3ccsc23)s1 [SNS314] (first compound 0.1 µM, partner dose 0.0008 µM) is 133%. Consider `CS(=O)(=O)CCNCc1ccc(-c2ccc3ncnc(Nc4ccc(OCc5cccc(F)c5)c(Cl)c4)c3c2)o1` [lapatinib] + COc1ccc2c(c1)CCC1C2CCC2(C)C(NCCCCCCN3C(=O)C=CC3=O)CCC12 [U73122] (first compound 0.8 µM, partner dose 0.4 µM), for which the “cleaved PARP positive nuclei fraction” value turned out to be 74.6%.

For the compound `Cc1cc(Nc2cc(N3CCN(C)CC3)nc(/C=C/c3ccccc3)n2)n[nH]1` + CCCCCCCCCCCC1=C(O)C(=O)C=C(O)C1=O [Embelin] (first compound 0.04 µM, partner dose 1.2 µM), the “cleaved PARP positive nuclei fraction” value was 86.4%.

Turning to `C[C@@H](Oc1cc(-c2cnn(C3CCNCC3)c2)cnc1N)c1c(Cl)ccc(F)c1Cl` [Crizotinib] + Cc1cc([N+](=O)[O-])ccc1NS(=O)(=O)c1cc(Cl)ccc1Cl [FH535] (first compound 0.2 µM, partner dose 1 µM), the “cleaved PARP positive nuclei fraction” value was found to be 225%. In the case of `Nc1ccn([C@@H]2O[C@H](CO)[C@@H](O)C2(F)F)c(=O)n1` [gemcitabine] + O=C(Nc1cccc(Cl)c1)Nc1ncc(CCNc2ncnc3ccsc23)s1 [SNS314] (first compound 0.0004 µM, partner dose 0.0008 µM) it was 67.6%.

Take `O=C(O)[C@@H]1[O][Sb](=[O])([O][Sb]2(=[O])[O][C@H]([C@H](O)CO)[C@H](O)[C@H](C(=O)O)[O]2)[O][C@H]([C@H](O)CO)[C@@H]1O` (some centres undefined) [stibogluconate] + CC(C)CCN1c2nc(Nc3cc(F)c(O)c(F)c3)ncc2N(C)C(=O)C1C [BID1870] (first compound 2 µM, partner dose 0.2 µM): the “cleaved PARP positive nuclei fraction” value was 64%.

Take `C=C(c1ccc(C(=O)O)cc1)c1cc2c(cc1C)C(C)(C)CCC2(C)C` [Bexarotene] + COc1ccc2c(c1)CCC1C2CCC2(C)C(NCCCCCCN3C(=O)C=CC3=O)CCC12 [U73122] (first compound 2 µM, partner dose 0.4 µM): the “cleaved PARP positive nuclei fraction” value amounted to 76.6%. In the case of `C=C(c1ccc(C(=O)O)cc1)c1cc2c(cc1C)C(C)(C)CCC2(C)C` [Bexarotene] + Oc1nc(-c2ccc(C(F)(F)F)cc2)nc2c1CSCC2 [XAV939] (first compound 2 µM, partner dose 2 µM), the “cleaved PARP positive nuclei fraction” value stood at 77.8%. In the case of `CS(=O)(=O)CCNCc1ccc(-c2ccc3ncnc(Nc4ccc(OCc5cccc(F)c5)c(Cl)c4)c3c2)o1` [lapatinib] + NC(=O)Nc1cc(-c2cccc(F)c2)sc1C(=O)N[C@H]1CCCNC1 [AZD7762] (first compound 0.8 µM, partner dose 0.02 µM) it was 185%. In the case of `O=C(O)[C@@H]1[O][Sb](=[O])([O][Sb]2(=[O])[O][C@H]([C@H](O)CO)[C@H](O)[C@H](C(=O)O)[O]2)[O][C@H]([C@H](O)CO)[C@@H]1O` (some centres undefined) [stibogluconate] + CN(NC(=O)CC(=O)NN(C)C(=S)c1ccccc1)C(=S)c1ccccc1 [STA4783] (first compound 2 µM, partner dose 0.006 µM) it was 60.5%. In the case of `CCCS(=O)(=O)Nc1ccc(F)c(C(=O)c2c[nH]c3ncc(Cl)cc23)c1F` + COc1ccc(COc2ccc(Cc3cnc(N)nc3N)cc2OC)cc1 [GW2580] (first compound 0.08 µM, partner dose 1 µM), the “cleaved PARP positive nuclei fraction” value amounted to 67%. In the case of `Nc1ncn([C@H]2C[C@H](O)[C@@H](CO)O2)c(=O)n1` [decitabine] + CCc1ccc(CCOc2ccc(CC3SC(=O)NC3=O)cc2)nc1 [pioglitazone] (first compound 0.1 µM, partner dose 2 µM) it was 133%; in that of `CN1CCN(c2ccc3nc(-c4c(N)c5c(F)cccc5[nH]c4=O)[nH]c3c2)CC1` [Dovitinib] + CN(NC(=O)CC(=O)NN(C)C(=S)c1ccccc1)C(=S)c1ccccc1 [STA4783] (first compound 0.1 µM, partner dose 0.006 µM), 60.9%. In the case of `Nc1ccn([C@@H]2O[C@H](CO)[C@@H](O)C2(F)F)c(=O)n1` [gemcitabine] + O=c1cc(-c2cccc3c2Sc2ccccc2S3)oc(N2CCOCC2)c1 [KU55933] (first compound 0.0004 µM, partner dose 1 µM) it was 134%; in that of `CCCS(=O)(=O)Nc1ccc(F)c(C(=O)c2c[nH]c3ncc(Cl)cc23)c1F` + COc1cc(Nc2ncc(F)c(Nc3ccc4c(n3)NC(=O)C(C)(C)O4)n2)cc(OC)c1OC [Tamatinib] (first compound 0.08 µM, partner dose 0.4 µM), 188%. On to `Cn1c(=O)n(-c2ccc(C(C)(C)C#N)cc2)c2c3cc(-c4cnc5ccccc5c4)ccc3ncc21` + Oc1cc(-c2nc(-c3ccccc3)[nH]c2-c2ccncc2)ccc1Cl [L779450] (first compound 0.004 µM, partner dose 0.2 µM), for which the “cleaved PARP positive nuclei fraction” value was found to be 265%. In the case of `CN1CCN(c2ccc3nc(-c4c(N)c5c(F)cccc5[nH]c4=O)[nH]c3c2)CC1` [Dovitinib] + COc1ccc(COc2ccc(Cc3cnc(N)nc3N)cc2OC)cc1 [GW2580] (first compound 0.1 µM, partner dose 1 µM), the “cleaved PARP positive nuclei fraction” value came to 164%. On to `C=C(c1ccc(C(=O)O)cc1)c1cc2c(cc1C)C(C)(C)CCC2(C)C` [Bexarotene] + CCc1ccc(CCOc2ccc(CC3SC(=O)NC3=O)cc2)nc1 [pioglitazone] (first compound 2 µM, partner dose 2 µM), for which the “cleaved PARP positive nuclei fraction” value is 219%. On to `Cc1cc(Nc2cc(N3CCN(C)CC3)nc(/C=C/c3ccccc3)n2)n[nH]1` + CC(C)CCN1c2nc(Nc3cc(F)c(O)c(F)c3)ncc2N(C)C(=O)C1C [BID1870] (first compound 0.04 µM, partner dose 0.2 µM), for which the “cleaved PARP positive nuclei fraction” value turned out to be 68.6%. The figure for `CN1CCN(c2ccc3nc(-c4c(N)c5c(F)cccc5[nH]c4=O)[nH]c3c2)CC1` [Dovitinib] + CN(C)S(=O)(=O)c1ccc2c(c1)/C(=C/c1cc3c([nH]1)CCCC3)C(=O)N2 [SU6656] (first compound 0.1 µM, partner dose 0.4 µM) is 41.7%; for `CC(C)C[C@H](NC(=O)[C@H](Cc1ccccc1)NC(=O)c1cnccn1)B(O)O` [Bortezomib] + COc1cc2ncnc(Nc3ccc(Oc4ccccc4)cc3)c2cc1OC [SrcI1] (first compound 0.001 µM, partner dose 2 µM) it is 94.7%; for `CC(C)C[C@H](NC(=O)[C@H](Cc1ccccc1)NC(=O)c1cnccn1)B(O)O` [Bortezomib] + C[C@@H]1CCN(C(=O)CC#N)C[C@@H]1N(C)c1ncnc2[nH]ccc12 [CP690550] (first compound 0.001 µM, partner dose 1 µM) it is 56.9%. With `CNC(=O)c1cc(Oc2ccc(NC(=O)Nc3ccc(Cl)c(C(F)(F)F)c3)cc2)ccn1` [sorafenib] + c1cc(-c2cnn3cc(-c4ccc(OCCN5CCCCC5)cc4)cnc23)ccn1 [Dorsomorphin] (first compound 0.4 µM, partner dose 0.4 µM), the “cleaved PARP positive nuclei fraction” value stood at 50.7%.

As to `O=C(O)c1ccc2c(c1)nc(Nc1cccc(Cl)c1)c1ccncc12` + O=C(Nc1cccc(Cl)c1)Nc1ncc(CCNc2ncnc3ccsc23)s1 [SNS314] (first compound 0.4 µM, partner dose 0.0008 µM), the “cleaved PARP positive nuclei fraction” value is 136%.

Regarding `CCCS(=O)(=O)Nc1ccc(F)c(C(=O)c2c[nH]c3ncc(Cl)cc23)c1F` + CCc1ccc(CCOc2ccc(CC3SC(=O)NC3=O)cc2)nc1 [pioglitazone] (first compound 0.08 µM, partner dose 2 µM), the “cleaved PARP positive nuclei fraction” value worked out at 123%. In the case of `O=C(O)c1ccc2c(c1)nc(Nc1cccc(Cl)c1)c1ccncc12` + CC(C)(C)c1cnc(CSc2cnc(NC(=O)C3CCNCC3)s2)o1 [SNS-032] (first compound 0.4 µM, partner dose 0.01 µM) it was 49.9%; in that of `CN1CCN(c2ccc3nc(-c4c(N)c5c(F)cccc5[nH]c4=O)[nH]c3c2)CC1` [Dovitinib] + NC(=O)Nc1cc(-c2cccc(F)c2)sc1C(=O)N[C@H]1CCCNC1 [AZD7762] (first compound 0.1 µM, partner dose 0.02 µM), 227%; in that of `O=C(O)[C@@H]1[O][Sb](=[O])([O][Sb]2(=[O])[O][C@H]([C@H](O)CO)[C@H](O)[C@H](C(=O)O)[O]2)[O][C@H]([C@H](O)CO)[C@@H]1O` (some centres undefined) [stibogluconate] + OCCn1cc(-c2cnc3nnn(Cc4ccc5ncccc5c4)c3n2)cn1 [PF04217903] (first compound 2 µM, partner dose 1 µM), 108%. Turning to `CS(=O)(=O)CCNCc1ccc(-c2ccc3ncnc(Nc4ccc(OCc5cccc(F)c5)c(Cl)c4)c3c2)o1` [lapatinib] + COc1ccc(COc2ccc(Cc3cnc(N)nc3N)cc2OC)cc1 [GW2580] (first compound 0.8 µM, partner dose 1 µM), the “cleaved PARP positive nuclei fraction” value amounted to 270%.
